Test results as given in US11160750B2, “Composition and method for promoting hair growth” (ZivMas LLC, priority 2017, dated 2021).
At least one compound was matched to its structure with a doubt left.

How the values were obtained:
[1] = test system: human foreskin fibroblasts (HFF) cells; test: MTT proliferation assay in HFF cells; assay type: cell-based; details: parallel studies
[2] = test system: human follicle derma papilla cells (HFDP); test: Cell proliferation assay in HFDP cells; assay type: cell-based; details: 24 h, 0.5 ug/ml
Description: Adherent human cell lines were cultured according to standard mammalian tissue culture protocols and sterile technique. Human follicle derma papilla cells were cultured in human follicle dermal papilla cell growth medium, ready to use, low-serum. Keratinocyte cells (HaCaT) were cultured in high glucose Dulbecco's Modified Eagle Medium with 10% serum. Normal human […] cells such as HFF and BJ were culture in BIOAMF-2 complete medium (Biological industries). All media was supplemented with streptomycin ([…]), penicillin (100 U/ml) and Nystatin (12.5 U/ml). Cells were incubated in 5% CO2 at 37° C. All tissue culture were maintained in 25 cm^2 Nunc™ cell culture treated EasYFlask™ (Thermofisher scientific) and all the media and supplements were obtained from Biological Industries. Treatment were performed by plating cells in a Nunc™ 96 micro well delta surface plates (Thermofisher scientific) in a starting confluence of 0.5×10^4 cells/well. After 24 h of incubation the cells were treated with the ZM-26 composition.
Viability of the cells following treatment was determined using a commercially available MTT assay kit (ABCAM, ab146345) and performed according to manufacturer's instructions. […] The quantification was determined by measuring the optical density at 570 nm in an enzyme-linked immunosorbent assay (Spark, Tecan) reader. […]

BJ fibroblast cell line = test: MTT proliferation assay in BJ cells; assay type: cell-based, human; details: parallel studies

Measured: cell proliferation

Nc1cc(N2CCCCC2)nc(N)[n+]1[O-] [minoxidil]
failed to promote cell proliferation: [1] | [2] | BJ fibroblast cell line
